PubChem BioAssay AID602196 | INSERM, 2012

Screen: 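Knock-downs that protect lung cancer cells from cisplatin or sensitise them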
System: human A549 lung cancer cells
Reagent: siRNA pair against human genes
Duration: 48 h transfection before cisplatin; time from cisplatin to read-out not stated
Treatment: cisplatin at a dose killing half of control-siRNA cells; exact dose and duration not given
Measurement: 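Cisplatin cell death as a shift from the 50% death seen with control siRNA; siRNAs toxic or growth-blocking alone scored 0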
Reading the numbers: two-siRNA summed score (-2 to +2): higher = both siRNAs protect from cisplatin killing; -2 means both sensitise; mean protection from cisplatin (shift in death): higher = protection from cisplatin killing
Rule for the call: 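siRNAs harmful alone (LDH or WST-1) get 0; others get +1 for less and -1 for more cisplatin killing; genes are active when the two siRNAs give the same sign, summing to ±2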
Meaning of the calls: active = both siRNAs shift cisplatin killing the same way; inactive = no consistent shift, or siRNA harmful alone
The whole screen tested about 23,000 reagents; shown is a part drawn at random. In the full data, 455 (2%) got an active call. 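Active includes both protection and sensitisation; some change values fall well beyond the stated -50 to +50 range.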 Not all columns of the deposit are shown. Reagent sequences are not shown. Not stated in the record: the amount of reagent.

Knock-down of SLC25A51 gave: two-siRNA summed score (-2 to +2) = 0; mean protection from cisplatin (shift in death) (%) = 3.2; inactive.
After knock-down of SUCLG2 the results were two-siRNA summed score (-2 to +2) = 0; mean protection from cisplatin (shift in death) (%) = 1.7; inactive.
TMEM256 showed two-siRNA summed score (-2 to +2) = 0; mean protection from cisplatin (shift in death) (%) = 14.6; inactive.
For KCNAB3 the deposit lists two-siRNA summed score (-2 to +2) = 0; mean protection from cisplatin (shift in death) (%) = -1.4; inactive.
Depletion of MON1A gave: two-siRNA summed score (-2 to +2) = 0; mean protection from cisplatin (shift in death) (%) = -1.7; inactive.
Depletion of FNDC5 resulted in: two-siRNA summed score (-2 to +2) = 1; mean protection from cisplatin (shift in death) (%) = 10.1; inactive.
Against TIRAP the deposit lists two-siRNA summed score (-2 to +2) = 0; mean protection from cisplatin (shift in death) (%) = 6.1; inactive.
Silencing of OR10H4 resulted in: two-siRNA summed score (-2 to +2) = 0; mean protection from cisplatin (shift in death) (%) = 11.1; inactive.
OR10A3 showed two-siRNA summed score (-2 to +2) = 0; mean protection from cisplatin (shift in death) (%) = -0.5; inactive.
For HSPA2, the entry reads two-siRNA summed score (-2 to +2) = 0; mean protection from cisplatin (shift in death) (%) = 5.6; inactive.
For UBE3A the deposit lists two-siRNA summed score (-2 to +2) = 0; mean protection from cisplatin (shift in death) (%) = 9; inactive.
Depletion of RRAS2 gave: two-siRNA summed score (-2 to +2) = -1; mean protection from cisplatin (shift in death) (%) = -27.1; inactive.

An excerpt from the list above, for reference:
MON1A — two-siRNA summed score (-2 to +2) = 0; mean protection from cisplatin (shift in death) (%) = -1.7; activity call = inactive
FNDC5 — two-siRNA summed score (-2 to +2) = 1; mean protection from cisplatin (shift in death) (%) = 10.1; activity call = inactive
